# PubChem BioAssay (NCATS)
# Sequences of proteins named here, by UniProt entry; tags and fusion partners are left off.
# UniProt P11712, whole entry, looked up: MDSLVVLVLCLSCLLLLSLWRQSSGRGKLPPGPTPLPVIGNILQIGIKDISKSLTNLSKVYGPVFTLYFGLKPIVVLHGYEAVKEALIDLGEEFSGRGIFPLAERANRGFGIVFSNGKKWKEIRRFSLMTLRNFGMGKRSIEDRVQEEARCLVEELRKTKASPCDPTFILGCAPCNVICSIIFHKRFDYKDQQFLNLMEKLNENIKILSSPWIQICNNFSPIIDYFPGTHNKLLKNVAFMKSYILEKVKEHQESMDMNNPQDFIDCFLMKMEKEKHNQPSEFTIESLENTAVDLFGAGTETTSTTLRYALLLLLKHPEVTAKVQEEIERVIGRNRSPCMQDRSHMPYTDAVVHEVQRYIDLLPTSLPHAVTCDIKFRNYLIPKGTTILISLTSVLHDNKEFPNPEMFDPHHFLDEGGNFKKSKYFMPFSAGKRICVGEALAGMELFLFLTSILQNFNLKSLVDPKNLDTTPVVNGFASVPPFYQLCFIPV
# This list was built around the results that the source calls inconclusive (neither active nor inactive); the mix of calls is not that of the screen. For some of these results: Potencies of inconclusive entries are doubtful fits and often do not repeat. Active and inactive are the calls of the source. Unless noted, the call rests on the fitted dose curve; in most records, active means well fitted curve in the direction sought with a large enough effect; inconclusive means small, poorly fitted or top-dose-only effect, or another doubt; inactive means no such curve, though single readings can be large; an effect the other way counts as inactive or inconclusive.
# Key:
# [1] = Quantitative High-Throughput drug screen in 47 multiple myeloma cell lines against the NCATS MIPE library collection: UTMC2_PLB cell viability assay (AID 1919868); conditions: CellTiter-Glo ATP luminescence, 48 h; viability (% of DMSO control): at 45.8 µM (top of the series); further: nearly all actives have a fitted effect of over 55% in size; further: potency means the concentration at half of the fitted maximal effect
# In short: (§1)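 Viability after 48 h drug exposure was measured as ATP-dependent luminescence. Cells, 500 per well, sat at 37 °C under 5% CO2; DMSO wells set 100%, media-only wells 0%.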
# [2] = Quantitative High-Throughput drug screen in 47 multiple myeloma cell lines against the NCATS MIPE library collection: PE2_PLB cell viability assay (AID 1919869); conditions: PE2_PLB myeloma cells viability, ATP luminescence, 48 h; viability (% of control): at 45.8 µM (top of the series); further: nearly all actives have a fitted effect of over 35% in size; further: potency means the concentration at half of the fitted maximal effect
# In short: as §1
# [3] = Quantitative High-Throughput drug screen in 47 multiple myeloma cell lines against the NCATS MIPE library collection: RPMI8226_ATCC cell viability assay (AID 1919871); conditions: RPMI8226 myeloma viability, CellTiter-Glo ATP luminescence, 48 h; viability (% of control): at 45.8 µM (top of the series); further: nearly all actives have a fitted effect of over 30% in size; further: potency means the concentration at half of the fitted maximal effect
# In short: as §1
# [4] = Quantitative High-Throughput drug screen in 47 multiple myeloma cell lines against the NCATS MIPE library collection: OPM2_DSMZ cell viability assay (AID 1919872); further: nearly all actives have a fitted effect of over 30% in size; further: potency means the concentration at half of the fitted maximal effect
# In short: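 Inhibition of cell viability is measured here. Each line was plated at 500 cells per well, treated with MIPE 4.0 drugs, kept 48 hours at 37C, then assayed for ATP content by CellTiter-Glo luminescence.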
# [5] = qHTS for identification of novel therapeutic agents for treatment of microphthalmiaassociated transcription factor (MiT) renal cell carcinoma (RCC) (AID 1963991; calls by dose curve; further: potency means the concentration at half of the fitted maximal effect); conditions: TFE3-RCC UOK109 viability, CellTiter-Glo, 48 h; active = Z-AUC below -0.8 in all three lines
# In short: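 Viability of three TFE3-fusion renal carcinoma lines measured by CellTiter-Glo after 48 h treatment with each of 1912 compounds at 11 concentrations. Responses scaled between DMSO (100%) and empty wells (0%) before curve fitting.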
# [6] = Quantitative High-Throughput drug screen in 47 multiple myeloma cell lines against the NCATS MIPE library collection: KMS11_JCRBsus cell viability assay (AID 1919873); further: potency means the concentration at half of the fitted maximal effect; nearly all actives have a fitted effect of over 50% in size
# In short: as §1
# [7] = Quantitative High-Throughput drug screen in 47 multiple myeloma cell lines against the NCATS MIPE library collection: KMS28BM_JCRB cell viability assay (AID 1919874); conditions: CellTiter-Glo ATP, 48 h; viability, % of control: at 45.8 µM (top of the series); further: potency means the concentration at half of the fitted maximal effect; nearly all actives have a fitted effect of over 35% in size
# In short: as §1
# 7G8 = test: qHTS profiling for inhibitors of Plasmodium falciparum proliferation (AID 504749); further: nearly all actives have a fitted effect of over 60% in size; further: potency means the concentration at half of the fitted maximal effect; conditions: P. falciparum in erythrocytes, SYBR Green DNA, 72 h; series mostly up to 28.7 µM
# In short: (§2)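 Readout was DNA-dye fluorescence from lysed cultures, ex 485/em 535 nm. Parasitized red cells had grown 72 h with compound; data scaled between 0.29 uM artemisinin and DMSO wells and corrected using vehicle-only plates.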
# [8] = Quantitative High-Throughput drug screen in 47 multiple myeloma cell lines against the NCATS MIPE library collection: PCM6_Riken cell viability assay (AID 1919870); further: nearly all actives have a fitted effect of over 30% in size; further: potency means the concentration at half of the fitted maximal effect
# In short: as §1
# [9] = target: Cytochrome P450 2C9 (Homo sapiens) (UniProt P11712); test: qHTS for inhibitors of CYP2C9 against the NCATS DSHEA and TCM libraries (AID 1919973);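 further: luminogenic pro-luciferin CYP2C9 substrate turned into luciferin with NADPH regeneration; on the % scale 0 is the no-effect control and ±100 the full control effect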
# In short: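 Light output from converted D-luciferin reports remaining CYP activity. Compounds preincubate with enzyme and substrate for 15 min; NADPH regeneration (1x final) runs the reaction for 30-45 min.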
# 3D7 = test: qHTS profiling for inhibitors of Plasmodium falciparum proliferation (AID 504749); further: nearly all actives have a fitted effect of over 60% in size; further: potency means the concentration at half of the fitted maximal effect; conditions: P. falciparum in erythrocytes, SYBR Green DNA, 72 h; series mostly up to 28.7 µM
# In short: as §2
compound,measurement,setting,value
CC(C)NC[C@@H](C(=O)N1CCN(c2ncnc3c2[C@H](C)C[C@H]3O)CC1)c1ccc(Cl)cc1,Potency,[1],active: 0.105 µM
same,Potency,[2],"inconclusive: 0.662 µM [cytotoxic, full curve]"
same,Potency,[3],active: 11.8 µM
same,Potency,[4],active: 18.7 µM
same,Potency,[5],"inconclusive: 13.2 µM [falling, partial curve]"
Nc1nc(N)nc(-c2cc(Cl)ccc2Cl)n1,Potency,[1],"inconclusive: 2.35 µM [cytotoxic, full curve, poor fit]"
same,Potency,[2],"inconclusive: 1.48 µM [cytotoxic, full curve, poor fit]"
same,Potency,[6],"inconclusive: 29.6 µM [cytotoxic, single point]"
same,Potency,[7],"inconclusive: 37.2 µM [cytotoxic, single point]"
same,Potency,7G8,inactive
CCNC(=O)Nc1ccc(Oc2ncnc(N)c2C=NOC)cc1Cl,Potency,[1],"inconclusive: 4.69 µM [rising, partial curve, poor fit]"
same,Potency,[2],"inconclusive: 3.72 µM [cytotoxic, full curve, poor fit]"
same,Potency,[8],"inconclusive: 9.35 µM [cytotoxic, full curve, poor fit]"
same,Potency,[4],"inconclusive: 33.2 µM [cytotoxic, single point]"
same,Potency,[7],"inconclusive: 16.6 µM [cytotoxic, partial curve]"
same,Potency,[5],inconclusive: 0.0935 µM
CC(C)(C)[C@H](NC(=O)c1ccc(N)c(Cl)c1)C(=O)N1CCC[C@@H]1C(=O)N[C@H](C#N)CC(=O)O,viability (% of DMSO control),[1],inactive: 157% [at 3.51 µM]
same,viability (% of control),[2],inactive: 118% [at 3.51 µM]
same,viability (% of control),[8],inactive: 122% [at 3.51 µM]
same,Potency,[3],inconclusive: 0.0002 µM
same,Potency,[7],"inconclusive: 0.0105 µM [cytotoxic, full curve, poor fit]"
Cn1c(NCCN(CCO)CCCc2ccc([N+](=O)[O-])cc2)cc(=O)n(C)c1=O,Potency,[1],"inconclusive: 0.0935 µM [cytotoxic, full curve, poor fit]"
same,Potency,[2],"inconclusive: 37.2 µM [cytotoxic, single point]"
same,Potency,[8],"inconclusive: 23.5 µM [cytotoxic, single point]"
same,Potency,[3],inactive
same,Potency,[4],inactive
same,Potency,[6],"inconclusive: 33.2 µM [cytotoxic, single point]"
same,Potency,[7],"inconclusive: 20.9 µM [cytotoxic, partial curve]"
same,Potency,[5],"inconclusive: 14.8 µM [falling, partial curve]"
same,Potency,7G8,"inconclusive: 11.2 µM [inhibitor, single point]"
CN1CCN2c3ccccc3Cc3ccccc3C2C1 (stereo not drawn),Potency,[1],inactive
same,Potency,[2],"inconclusive: 26.4 µM [cytotoxic, single point]"
same,Potency,[8],"inconclusive: 20.9 µM [cytotoxic, partial curve]"
same,Potency,[3],"inconclusive: 23.5 µM [cytotoxic, partial curve, poor fit]"
same,Potency,[4],"inconclusive: 18.7 µM [cytotoxic, partial curve, poor fit]"
same,Potency,[5],"inconclusive: 16.6 µM [falling, partial curve]"
Nc1ncnc2c1c(-c1cccc(OCc3ccccc3)c1)cn2C1CC(CN2CCC2)C1 (stereo not drawn),Potency,[1],active: 0.166 µM
same,Potency,[2],active: 6.62 µM
same,Potency,[4],"inconclusive: 23.5 µM [cytotoxic, partial curve]"
same,Potency,[6],active: 2.96 µM
same,Potency,[5],"inconclusive: 0.00148 µM [falling, full curve, poor fit]"
Nc1cccc2c1CN(C1CCC(=O)NC1=O)C2=O (stereo not drawn),Potency,[1],"inconclusive: 0.0034 µM [rising, full curve, poor fit]"
same,Potency,[2],"inconclusive: 2.15 µM [cytotoxic, partial curve, poor fit]"
same,Potency,[3],"inconclusive: 0.855 µM [cytotoxic, partial curve, poor fit]"
same,Potency,[4],inactive
same,Potency,[6],"inconclusive: 67.9 µM [cytotoxic, single point]"
C[C@@H]1CC=CC=CC=CC=C[C@@H](O[C@@H]2O[C@H](C)[C@@H](O)[C@H](N)[C@H]2O)C[C@@H]2O[C@](O)(C[C@@H](O)C[C@@H]3O[C@@H]3C=CC(=O)O1)C[C@H](O)[C@@H]2C(=O)O,Potency,[1],"inconclusive: 13.2 µM [cytotoxic, partial curve, poor fit]"
same,Potency,[2],active: 9.35 µM
same,Potency,[3],"inconclusive: 18.7 µM [cytotoxic, partial curve, poor fit]"
same,Potency,[4],"inconclusive: 16.6 µM [cytotoxic, partial curve, poor fit]"
same,Potency,[7],active: 20.9 µM
same,Potency,[5],"inconclusive: 10.5 µM [falling, partial curve, poor fit]"
OC[C@H]1O[C@@H](OCCc2ccc(O)cc2)[C@H](O)[C@@H](O)[C@H]1O,Potency,[1],"inconclusive: 0.0012 µM [cytotoxic, full curve, poor fit]"
same,Potency,[2],inactive
same,Potency,[3],inactive
same,Potency,[7],"inconclusive: 0.264 µM [cytotoxic, full curve, poor fit]"
same,Potency,[9],inactive
Cc1cc(OCCCS(C)(=O)=O)cc(C)c1-c1cccc(COc2ccc3c(c2)OC[C@H]3CC(=O)O)c1,Potency,[1],"inconclusive: 14.8 µM [cytotoxic, partial curve, poor fit]"
same,Potency,[2],"inconclusive: 10.5 µM [cytotoxic, partial curve]"
same,Potency,[8],"inconclusive: 14.8 µM [cytotoxic, partial curve, poor fit]"
same,Potency,[4],"inconclusive: 16.6 µM [cytotoxic, partial curve, poor fit]"
same,Potency,[6],active: 18.7 µM
CCC(C)(C)c1ccc(CC(C)CN2C[C@@H](C)O[C@@H](C)C2)cc1 (stereo partly drawn),Potency,[1],inactive
same,Potency,[2],"inconclusive: 23.5 µM [cytotoxic, single point]"
same,Potency,[8],"inconclusive: 33.2 µM [cytotoxic, single point]"
same,Potency,[3],"inconclusive: 29.6 µM [cytotoxic, single point]"
same,Potency,[7],"inconclusive: 33.2 µM [cytotoxic, single point]"
same,Potency,3D7,"inconclusive: 17.8 µM [inhibitor, single point]"
same,Potency,7G8,active: 10 µM
COc1ccccc1-c1cccc(-c2c(O)c3cc(C#N)c(Cl)cc3[nH]c2=O)c1,Potency,[1],"inconclusive: 67.9 µM [cytotoxic, single point]"
same,Potency,[2],"inconclusive: 60.5 µM [cytotoxic, single point]"
same,Potency,[8],"inconclusive: 42.9 µM [cytotoxic, single point]"
same,Potency,[7],"inconclusive: 6.79 µM [cytotoxic, full curve, poor fit]"
C[C@H](c1ccc(F)cc1CCCC(=O)O)N(c1cc(F)ccc1F)S(=O)(=O)c1ccc(Cl)cc1,Potency,[1],active: 14.8 µM
same,Potency,[2],"inconclusive: 23.5 µM [cytotoxic, partial curve]"
same,Potency,[8],active: 6.62 µM
same,Potency,[3],"inconclusive: 7.43 µM [cytotoxic, partial curve, poor fit]"
same,Potency,[6],"inconclusive: 1.87 µM [cytotoxic, full curve, poor fit]"
COc1cc(OC2CCN(C)CC2)ccc1Nc1ncc2c(n1)n(C1CCCC1)c(=O)n2C,Potency,[1],active: 7.43 µM
same,Potency,[2],active: 9.35 µM
same,Potency,[3],"inconclusive: 20.9 µM [cytotoxic, partial curve]"
same,Potency,[4],"inconclusive: 20.9 µM [cytotoxic, partial curve]"
same,Potency,[5],"inconclusive: 18.7 µM [falling, partial curve]"
CC(C)CC(=O)Nc1n[nH]c2c1CN(C(=O)C1CCN(C)CC1)C2(C)C,Potency,[1],active: 2.35 µM
same,Potency,[2],active: 2.09 µM
same,Potency,[6],active: 1.48 µM
same,Potency,[5],"inconclusive: 4.18 µM [falling, full curve]"
NC(N)=Nc1nc(CSCCC(N)=NS(N)(=O)=O)cs1,Potency,[1],active: 9.35 µM
same,Potency,[2],active: 20.9 µM
same,Potency,[8],active: 14.8 µM
same,Potency,[4],"inconclusive: 0.0132 µM [rising, full curve, poor fit]"
same,Potency,[5],"inconclusive: 18.7 µM [falling, partial curve]"
CC(O)C1C(=O)N2C(C(=O)O)=C(SC3CNC(C(=O)N(C)C)C3)C(C)C12 (stereo not drawn),Potency,[1],inactive
same,Potency,[8],inactive
same,Potency,[3],"inconclusive: 0.0053 µM [rising, full curve, poor fit]"
same,Potency,[4],"inconclusive: 0.0235 µM [rising, full curve]"
N#CC1(c2cccc(C(=O)Nc3cc(Oc4ccc5nc(NC(=O)C6CC6)sc5n4)ccc3F)c2Cl)CC1,Potency,[1],"inconclusive: 33.2 µM [cytotoxic, single point]"
same,Potency,[2],"inconclusive: 3.32 µM [cytotoxic, full curve]"
same,Potency,[4],"inconclusive: 4.18 µM [cytotoxic, partial curve, poor fit]"
same,Potency,[6],active: 0.132 µM
same,Potency,[5],"inconclusive: 8.33 µM [falling, partial curve]"
c1nc2nc(Nc3ccc(N4CCOCC4)cc3)nc(NC3CCCCC3)c2[nH]1,Potency,[1],active: 2.64 µM
same,Potency,[2],active: 3.72 µM
same,Potency,[8],active: 5.9 µM
same,Potency,[3],active: 11.8 µM
same,Potency,[5],"inconclusive: 16.6 µM [falling, partial curve]"
COC1=C2C[C@@H](C)C[C@H](OC)[C@@H](O)[C@@H](C)C=C(C)[C@H](OC(N)=O)[C@@H](OC)C=CC=C(C)C(=O)NC(=CC1=O)C2=O,Potency,[1],active: 0.209 µM
same,Potency,[2],active: 0.296 µM
same,Potency,[3],active: 0.105 µM
same,Potency,[6],active: 0.0833 µM
same,Potency,[7],active: 0.0935 µM
same,Potency,[5],"inconclusive: 16.6 µM [falling, partial curve]"
CN1CCC[C@H]1CCO[C@](C)(c1ccccc1)c1ccc(Cl)cc1,Potency,[1],active: 14.8 µM
same,Potency,[2],"inconclusive: 33.2 µM [cytotoxic, single point]"
same,Potency,[8],"inconclusive: 26.4 µM [cytotoxic, single point]"
same,Potency,[3],inactive
same,Potency,[6],"inconclusive: 37.2 µM [cytotoxic, single point]"
same,Potency,[5],"inconclusive: 23.5 µM [falling, single point]"

# Taken from the entries so far for reference:
compound,measurement,setting,value
COc1ccccc1-c1cccc(-c2c(O)c3cc(C#N)c(Cl)cc3[nH]c2=O)c1,Potency,[8],"inconclusive: 42.9 µM [cytotoxic, single point]"
same,Potency,[7],"inconclusive: 6.79 µM [cytotoxic, full curve, poor fit]"
C[C@H](c1ccc(F)cc1CCCC(=O)O)N(c1cc(F)ccc1F)S(=O)(=O)c1ccc(Cl)cc1,Potency,[1],active: 14.8 µM
